For at least one compound, name, drawing or mass did not settle the structure.
Test: Stability, recovery and release of XPDO from HDC glass (HPLC)
Type: physicochemical
Conditions: TOAC/XPDO glass, storage at 45° C. for 4 weeks
Procedure: Release characteristics of the vitreous HDC solid dose delivery systems were studied by monitoring the release of MB9 from TOAC/XPDO glasses as shown in FIG. 15. For analysis of stability of active in the vitreous HDC solid dose delivery systems, XPDO was recovered from the samples by dissolving the glass in acetonitrile and analyzing by HPLC. There was full recovery of the guest substance even after storage at 45° C. for 4 weeks.
For analysis XPDO was extracted from the spray-dried powder by dissolving the powder in acetonitrile and then diluting the acetonitrile with sodium phosphate buffer prior to analysis by HPLC. Samples were set up to test stability of XPDO in the spray dried formulations at 45° C. and stored over saturated Zinc sulphate (RH 80-85%).
For release into sodium phosphate buffer, 0.0868 g of the spray dried powder was shaken in 10 mls of the buffer for 1 minute. The suspension was then filtered through a 0.2 μm filter. […] Bioavailability of the steroid from the delivery system was tested by immersion in an aqueous solution for a short time. Stability of the steroid in the spray-dried formulation was tested at high humidity and 45° C. (both factors are important if the application as an inhalable powder is to be successful). The results indicated a resistance to high humidity, stability in the glass and ready bioavailability in vitro tests.

Compound: CCCC1OC2CC3C4CC(F)C5=CC(=O)CCC5(C)C4(F)C(O)CC3(C)C2(C(=O)CO)O1 (stereo not drawn) [XPDO, 6α,9α-difluoro-11β,21-dihydroxy-16α,17α-propyl methylene dioxy-4-pregnene-3,20-dione]
- recovery of guest substance (HPLC): full recovery

Reference: patent publication US6586006B2, “Solid delivery systems for controlled release of molecules incorporated therein and methods of making same” (Elan Drug Delivery Limited, priority 1994, dated 2003)
